For at least one compound, name, drawing or mass did not settle the structure. Some entries repeat one wording, which the source may state once for all of them.
Tested on: iPSC-derived BMECs
Assay: Test of compounds for the ability to mimic the activity of RA (elevated TEER)
Format: cell-based, human
Source text: Further, Applicants tested a list of compounds for the ability to mimic the activity of RA.
A typical retinoic acid-enhanced blood brain barrier is created as described below and in the figures. Retinoic acid suitable for the present invention may be obtained from commercial sources such as Sigma-Aldrich. […] Both types of RA are suitable for the present invention.

With `CC(C)(O)[C@H]1O[C@H]2CC[C@@]3(C)[C@@](O)(CC[C@H]4Cc5c([nH]c6ccccc56)[C@@]43C)C2=CC1=O` [paxilline] the “induction of elevated TEER” value was “not to induce elevated TEER”.

Reference: patent publication US10590393B2, “Retinoic acid enhanced human stem cell derived blood brain barrier model” (Wisconsin Alumni Research Foundation, priority 2012, dated 2020)
